Data taken from patent publication US9301885B2, “Absorbent article” (UNICHARM CORPORATION, priority 2011, dated 2016).

Columns and labels:
[1] = Absorbent body migration rate; parameters: species or system horse
[2] = Visual evaluation of top sheet whiteness after the absorbent body migration rate test; parameters: species or system horse; key: VG (Very Good): Virtually no redness of blood remaining, and no clear delineation between areas with and without blood.; G (Good): Slight redness of blood remaining, but difficult to delineate between areas with and without blood.; F (Fair): Slight redness of blood remaining, areas with blood discernible.; P (Poor): Redness of blood completely remaining; conditions: Table 3; skin contact surface, visual scale
[3] = Liquid residue test, blood cell count per 1 g of top sheet; parameters: species or system horse; conditions: per 1 g of top sheet coated at about 5 g/m^2
[4] = Liquid dropping test (color difference of top sheet); conditions: CIE L*a*b*, skin contact surface of top sheet coated at about 5 g/m^2, 40 seconds after second dropping of 3 mL horse EDTA blood
[5] = Table 3, napkin top sheet coated as in Production Example 1
[6] = Table 2, time for horse EDTA blood to migrate from top sheet into absorbent body

## CCCCCCCCOC(=O)CCCCC(=O)OCCCCCCCC [Dioctyl adipate]
[1]; [5]
  Absorbent body migration rate: 6 s
[2]
  Top sheet whiteness: VG

## CCCCCCCCCCCCOC(=O)CCCCCCCCCCC [ELECTOL WE20]
[1]; [5]
  Absorbent body migration rate: 5 s
[2]
  Top sheet whiteness: VG

## CCCCCCCCCCCCCC(=O)OCCCCCCCCCCCC [ELECTOL WE40]
[3]
  Blood cell count: 6e+07 g⁻¹
[4]
  Color difference ΔE: 43.5
[1]; [6]
  Absorbent body migration rate: 4 s
[1]; [5]
  Absorbent body migration rate: 4 s
[2]
  Top sheet whiteness: VG

## CCCCC(CC)C(=O)OCC(C)(C)COC(=O)C(CC)CCCC (centres unmarked) [H-208BRS, Neopentylglycol di(2-ethylhexanoate)]
[3]
  Blood cell count: 1.5e+08 g⁻¹
[4]
  Color difference ΔE: 39.4
[1]; [6]
  Absorbent body migration rate: 5 s
[1]; [5]
  Absorbent body migration rate: 5 s
[2]
  Top sheet whiteness: VG

## CCCCC(CC)C(=O)OCC(COC(=O)C(CC)CCCC)(COC(=O)C(CC)CCCC)COC(=O)C(CC)CCCC (centres unmarked) [H-408BRS, Pentaerythritol tetra(2-ethylhexanoate)]
[3]
  Blood cell count: 1.8e+08 g⁻¹
[4]
  Color difference ΔE: 45.5

## CCCCC(CC)C(=O)OCC(COC(=O)C(CC)CCCC)OC(=O)C(CC)CCCC (centres unmarked) [PANACET 800B]
[1]; [5]
  Absorbent body migration rate: 3 s
[2]
  Top sheet whiteness: VG

## CCCCCCCC(=O)OCC(COC(=O)CCCCCCC)OC(=O)CCCCCCC [PANACET 800]
[1]; [5]
  Absorbent body migration rate: 3 s
[2]
  Top sheet whiteness: VG

## CCCCCCCCCCCC(=O)OCC(O)CO (centres unmarked) [lauric acid monoglyceride]
[3]
  Blood cell count: 7e+07 g⁻¹
[4]
  Color difference ΔE: 29.8
[1]; [6]
  Absorbent body migration rate: 7 s
[1]; [5]
  Absorbent body migration rate: 7 s
[2]
  Top sheet whiteness: P

## Caprylic acid diglyceride
[1]; [5]
  Absorbent body migration rate: 9 s
[2]
  Top sheet whiteness: G

## Isopropyl citrate
[1]; [5]
  Absorbent body migration rate: 5 s
[2]
  Top sheet whiteness: G
